Some entries share one result that the patent states for a list of compounds.
What was measured:
Assay type in all cases: in vivo
Lucilia cuprina larvae = assay: Lucilia cuprina test (LUCICU); conditions: application rate 100 ppm, after 2 d, treated horse meat
Description: Lucilia cuprina Test (LUCICU) Solvent: dimethyl sulphoxide To produce a suitable preparation of active compound, 1 part by weight of active compound is mixed with the stated amount of water, and the concentrate is diluted with water to the desired concentration. Containers containing horse meat treated with the active compound preparation of the desired concentration are populated with Lucilia cuprina larvae. After the desired period of time, the kill in % is determined 100% means that all larvae have been killed; 0% means that none of the larvae have been killed.

[1] = system: larvae of the mustard beetle (Phaedon cochleariae); assay: Phaedon test (PHAECO spray treatment); conditions: application rate 500 g/ha, after 7 d
Description: Phaedon Test ([…] Spray Treatment) [table] To produce a suitable preparation of active compound, 1 part by weight of active compound is mixed with the stated amounts of solvents and emulsifier, and the concentrate is diluted with emulsifier-containing water to the desired concentration. Discs of chinese cabbage (Brassica pekinensis) are sprayed with an active compound preparation of the desired concentration and, after drying, populated with larvae of the mustard beetle (Phaedon cochleariae). After the desired period of time, the effect in % is determined 100% means that all beetle larvae have been killed; 0% means that none of the beetle larvae have been killed.

[2] = system: caterpillars of the army worm (Spodoptera frugiperda); assay: Spodoptera frugiperda test (SPODFR spray treatment); conditions: application rate 500 g/ha, after 7 d
Description: Spodoptera frugiperda Test (SPODFR Spray Treatment) [table] To produce a suitable preparation of active compound, 1 part by weight of active compound is mixed with the stated amounts of solvents and emulsifier, and the concentrate is diluted with emulsifier-containing water to the desired concentration. Discs of maize leaves (Zea mays) are sprayed with an active compound preparation of the desired concentration and, after drying, populated with caterpillars of the army worm (Spodoptera frugiperda). After the desired period of time, the effect in % is determined 100% means that all caterpillars have been killed; 0% means that none of the caterpillars have been killed.

Boophilus microplus = Boophilus microplus test (BOOPMI injection); conditions: application rate 20 μg/animal, after 7 d, injection into abdomen

SMILES | activity (kill in %, larvae) (Lucilia cuprina larvae) [%] | activity (effect in %, beetle larvae killed) [1] [%] | activity (effect in %, caterpillars killed) [2] [%] | activity in % (100% = no tick laid fertile eggs) (Boophilus microplus) [%]
Nc1c(-c2ccc(F)cc2)c(C(F)(F)F)nn1-c1ncccn1 [Example 1-3] | ≥ 80 | ≥ 80 | – | –
Nc1c(-c2cc(F)c(F)cc2F)c(C(F)(F)F)nn1-c1ncccn1 [Example 2-4] | ≥ 80 | ≥ 80 | – | –
Nc1c(-c2cc(F)c(F)c(F)c2)c(C(F)(F)F)nn1-c1ncccn1 [Example 2-6] | ≥ 80 | ≥ 80 | ≥ 80 | –
Nc1c(-c2cc(F)c(F)cc2Cl)c(C(F)(F)F)nn1-c1ncccn1 [Example 2-15] | ≥ 80 | ≥ 80 | – | –
Nc1c(-c2cccc(C(F)(F)F)c2)c(C(F)(F)F)nn1-c1ncccn1 [Example 3-2] | – | ≥ 80 | – | ≥ 80
Nc1c(-c2cccc(C(F)(F)F)c2F)c(C(F)(F)F)nn1-c1ncccn1 [Example 3-34] | – | ≥ 80 | ≥ 80 | –
Nc1c(-c2ccc(OC(F)(F)F)cc2)c(C(F)(F)F)nn1-c1ncccn1 [Example 4-6] | ≥ 80 | ≥ 80 | – | –
Nc1c(-c2ccc(OC(F)(F)F)c(F)c2)c(C(F)(F)F)nn1-c1ncccn1 [Example 4-19] | ≥ 80 | ≥ 80 | – | –
Nc1c(-c2cc(Cl)cc(OC(F)(F)F)c2)c(C(F)(F)F)nn1-c1ncccn1 [Example 4-23] | ≥ 80 | – | ≥ 80 | –
Nc1c(-c2ccc(OC(F)(F)F)c(OC(F)(F)F)c2)c(C(F)(F)F)nn1-c1ncccn1 [Example 4-34] | – | ≥ 80 | ≥ 80 | –
Cc1ccc(-c2c(C(F)(F)F)nn(-c3ncccn3)c2N)cc1C [Example 8-5] | – | ≥ 80 | ≥ 80 | –
COc1ccc(-c2c(C(F)(F)F)nn(-c3ncccn3)c2N)cc1OC [Example 8-11] | – | ≥ 80 | ≥ 80 | ≥ 80
COc1ccc(-c2c(C(F)(F)F)nn(-c3ncccn3)c2N)cc1Cl [Example 8-26] | – | ≥ 80 | ≥ 80 | –
COc1ccc(-c2c(C(F)(F)F)nn(-c3ncccn3)c2N)cc1Br [Example 8-27] | – | ≥ 80 | ≥ 80 | –
Cc1cc(Cl)c(-c2c(C(F)(F)F)nn(-c3ncccn3)c2N)cc1Cl [Example 8-54] | – | ≥ 80 | – | ≥ 80
COc1cc(-c2c(C(F)(F)F)nn(-c3ncccn3)c2N)ccc1OC(F)F [Example 8-66] | – | ≥ 80 | ≥ 80 | –
COc1cc(Br)c(-c2c(C(F)(F)F)nn(-c3ncccn3)c2N)cc1OC [Example 8-69] | – | ≥ 80 | ≥ 80 | ≥ 80
COc1cc(Br)ccc1-c1c(C(F)(F)F)nn(-c2ncccn2)c1N [Example 8-73] | – | ≥ 80 | ≥ 80 | –
Nc1c(-c2cc(Cl)c3c(c2)OCCO3)c(C(F)(F)F)nn1-c1ncccn1 [Example 8-107] | – | ≥ 80 | ≥ 80 | –
COc1ccc(OC(F)(F)F)cc1-c1c(C(F)(F)F)nn(-c2ncccn2)c1N [Example 8-108] | ≥ 80 | ≥ 80 | – | –
Nc1c(-c2ccc3c(c2)OCO3)c(C(F)(F)F)nn1-c1ncccn1 [Example 9-06] | – | ≥ 80 | ≥ 80 | –
Nc1c(-c2ccc3c(c2)OCCO3)c(C(F)(F)F)nn1-c1ncccn1 [Example 9-09] | – | ≥ 80 | ≥ 80 | –
CCN(CC)c1c(-c2ccc(Cl)c(OC(F)(F)F)c2)c(C(F)(F)F)nn1-c1ncccn1 [Example 13-116] | ≥ 80 | ≥ 80 | ≥ 80 | –

SMILES | activity (kill in %, larvae) (Lucilia cuprina larvae) [%] | activity (effect in %, beetle larvae killed) [1] [%] | activity (effect in %, caterpillars killed) [2] [%] | activity in % (100% = no tick laid fertile eggs) (Boophilus microplus) [%]
Nc1c(-c2cc(Cl)cc(Cl)c2)c(CF)nn1-c1ncccn1 [Example 15-19] | – | ≥ 80 | ≥ 80 | –
Nc1c(-c2cc(Cl)cc(Cl)c2)c(C(F)F)nn1-c1ncccn1 [Example 15-38] | ≥ 80 | ≥ 80 | ≥ 80 | –
Nc1c(-c2ccc(Br)cc2)c(C(F)(F)Cl)nn1-c1ncccn1 [Example 15-48] | – | ≥ 80 | ≥ 80 | –
Nc1c(-c2cc(Cl)cc(Cl)c2)c(C(F)(F)Br)nn1-c1ncccn1 [Example 15-114] | – | ≥ 80 | ≥ 80 | –
Nc1c(-c2ccc(Cl)c(OC(F)(F)F)c2)c(C(F)(F)Br)nn1-c1ncccn1 [Example 15-154] | – | ≥ 80 | ≥ 80 | –
Nc1c(-c2ccc(Cl)c(C(F)(F)F)c2)c(C(F)(F)Cl)nn1-c1ncccn1 [Example 15-155] | – | ≥ 80 | ≥ 80 | –
Nc1c(-c2ccc(Cl)c(C(F)(F)F)c2)c(C(F)(F)Br)nn1-c1ncccn1 [Example 15-156] | – | ≥ 80 | ≥ 80 | –
Nc1c(-c2cc(C(F)(F)F)cc(C(F)(F)F)c2)c(C(F)(F)Br)nn1-c1ncccn1 [Example 15-164] | – | ≥ 80 | ≥ 80 | ≥ 80
Nc1c(-c2cc(Cl)cc(C(F)(F)F)c2)c(CF)nn1-c1ncccn1 [Example 15-167] | – | ≥ 80 | ≥ 80 | –
Nc1c(-c2cc(Cl)cc(OC(F)(F)F)c2)c(C(F)(F)Br)nn1-c1ncccn1 [Example 15-169] | – | ≥ 80 | ≥ 80 | –
CCc1nn(-c2ncccn2)c(N)c1-c1ccc(Cl)c(Cl)c1 [Example 16-38] | – | ≥ 80 | ≥ 80 | ≥ 80
Nc1c(-c2cc(Cl)cc(Cl)c2)c(C(F)(F)C(F)(F)F)nn1-c1ncccn1 [Example 18-57] | – | ≥ 80 | ≥ 80 | –
Nc1c(-c2ccc(Cl)c(C(F)(F)F)c2)c(C(F)(F)CBr)nn1-c1ncccn1 [Example 18-238] | – | ≥ 80 | ≥ 80 | –
Nc1c(-c2cc(Cl)cc(OC(F)(F)F)c2)c(C(F)(F)C(F)(F)F)nn1-c1ncccn1 [Example 18-241] | – | ≥ 80 | ≥ 80 | –
Nc1c(-c2cc(Br)cc(Br)c2)c(C(F)(F)C(F)(F)F)nn1-c1ncccn1 [Example 18-242] | – | ≥ 80 | ≥ 80 | –
Nc1c(-c2ccc(Cl)c(Cl)c2)c(C(F)(F)F)nn1-c1ncc(F)cn1 [Example 19-56] | ≥ 80 | ≥ 80 | ≥ 80 | –
Nc1c(-c2cc(Cl)cc(Cl)c2)c(C(F)(F)F)nn1-c1ncc(F)cn1 [Example 19-57] | – | ≥ 80 | ≥ 80 | –
FC(F)(F)c1nn(-c2ncccn2)c(NCc2cc(Br)cc(Br)c2)c1-c1cc(Cl)cc(Cl)c1 [Example 27-153] | – | ≥ 80 | ≥ 80 | –
FC(F)(F)c1cc(-c2c(C(F)(F)F)nn(-c3ncccn3)c2NCc2ccccc2)ccc1Cl [Example 27-158] | – | ≥ 80 | ≥ 80 | –
FC(F)(F)Oc1cc(-c2c(C(F)(F)F)nn(-c3ncccn3)c2NCc2ccccc2)ccc1Cl [Example 27-160] | ≥ 80 | ≥ 80 | ≥ 80 | –
C#CCOC(=O)Nc1c(-c2cc(Cl)cc(C(F)(F)F)c2)c(C(F)(F)F)nn1-c1ncccn1 [Example 29-165] | – | ≥ 80 | ≥ 80 | –
Nc1c(-c2ccc(Cl)c(C(F)(F)F)c2)c(C(F)(F)F)nn1-c1ncc(F)cn1 [Example 43-02] | – | ≥ 80 | ≥ 80 | –

Source: US20100144672A1, “PYRIMIDINYL PYRAZOLES AS INSECTICIDES AND PARASITICIDE ACTIVE AGENTS” (BAYER CROPSCIENCE AG, priority 2006, published 2010)
